Data published in PubChem BioAssay AID504467 (National Center for Advancing Translational Sciences (NCATS), 2011).
The whole screen tested about 330,000 compounds, of which about 7,700 (2.3%) were called active. Inconclusive means that the source gave no clear call. Such entries were picked first, then a sample of the others. The call rests on the fitted dose curve; in most records, active means well fitted inhibition curve with a large enough effect; inconclusive means small, poorly fitted or top-dose-only effect, or effect the other way; inactive means flat fitted curve, though single readings scatter. Potencies of inconclusive entries are doubtful fits and often do not repeat.

Assay: qHTS screen for small molecules that inhibit ELG1-dependent DNA repair in human embryonic kidney (HEK293T) cells expressing luciferase-tagged ELG1; further: nearly all actives have a fitted effect of over 55% in size
Settings: HEK293T ELG1-luciferase reporter, luminescence, 16 h, DNA damage induced by 5-fluorouridine; activity change, negative = inhibition: at 46.1 µM (top of the series)
In short: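 Overnight (16 hr) co-exposure of 2,000 cells/well to 5-fluorouridine and compound at 37 °C preceded detection. Luciferase was quantified via ONE-Glo luminescence; loss of signal denotes inhibition.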
On the % scale 0 is the no-effect control and ±100 the full control effect; potency means the concentration at half of the fitted maximal effect.

| Compound | activity change, negative = inhibition | Potency |
| --- | --- | --- |
| Cc1ccc(OCC(=O)N(Cc2nnc(-c3ccccc3Cl)o2)C2CC2)cc1C | inactive: -29.2% |  |
| C=CCNC(=O)COCc1cc(-c2ccc3c(c2)OCO3)on1 |  | inconclusive: 13 µM [activator, partial curve] |
| CCCCn1c(=O)[nH]c(=O)c2c1nc(-c1cc(Br)c(OCC)c(OC)c1)n2C |  | inconclusive: 4.11 µM [inhibitor, full curve] |
| CC(C)(C)C(=O)Cn1ncc(N2CCOCC2)c(Cl)c1=O | inactive: 24.7% |  |
| O=C(O)c1ccc(N/N=C/c2c(F)cccc2Cl)cc1 |  | inconclusive: 0.291 µM [activator, partial curve, poor fit] |
| COc1cccc(OC)c1OCCCCn1cnc2ccccc2c1=O |  | inconclusive: 20.6 µM [inhibitor, partial curve, poor fit] |
| COc1ccc(CNCc2ccco2)cc1OCc1ccccc1 |  | inconclusive: 23.1 µM [activator, partial curve, poor fit] |
| Cc1nc(NC(=O)c2ccccc2)sc1-c1csc(Nc2cccc(F)c2)n1 |  | inconclusive: 18.4 µM [inhibitor, partial curve] |
| CC1(C)CC(CCN(Cc2ccccc2)C(=O)c2ccco2)(c2ccccc2)CCO1 (stereo not drawn) |  | inconclusive: 29.1 µM [inhibitor, partial curve, poor fit] |
| Cc1ccc(/C(O)=C2\C(=O)C(=O)N(C)C2c2ccc([N+](=O)[O-])cc2)cc1 (stereo not drawn) |  | inconclusive: 0.1 µM [activator, full curve, poor fit] |
| O=C(CNC(=O)c1cccc(Br)c1)N/N=C/c1cc(Br)cc(Br)c1O | inactive: -26.8% |  |
| Cc1cc(N2CCCC2=O)cc(C)c1S(=O)(=O)NCCOc1ccc(C(C)(C)C)cc1 |  | active: 20.6 µM |
| O=C(C1CCN(S(=O)(=O)c2cccc3cccnc23)CC1)N1CCn2c1nc1ccccc12 |  | active: 23.1 µM |
| CCN(Cc1ccccc1)C(=O)Cc1ccc(OC)c(S(=O)(=O)N2CCOCC2)c1 | inactive: -2.15% |  |
| CCCCNC(=O)CC1N=C2c3ccccc3N=C(SCC(=O)Nc3ccccc3OC)N2C1=O (stereo not drawn) | inactive: -5.14% |  |
| COc1ccc(S(=O)(=O)N2CCOCC2)cc1NC(=O)CSc1nnc(C2CC2)n1C |  | inconclusive: 29.1 µM [activator, partial curve, poor fit] |
| CC(=O)N(c1ccccc1)c1nnc(-c2cnc(C)cn2)s1 |  | inconclusive: 9.2 µM [activator, partial curve] |
| Cc1nc2nc(SCC(=O)O)nn2c(C)c1Cc1ccccc1Cl |  | inconclusive: 51.7 µM [activator, partial curve, poor fit] |
| O=C(NCc1ccco1)C1CCCN1C(=O)Nc1cccc(Cl)c1 (stereo not drawn) |  | inconclusive: 0.58 µM [inhibitor, single point] |
| O=C1c2ccccc2NC2CCCCC12 (stereo not drawn) |  | inconclusive: 29.1 µM [inhibitor, single point] |
| COc1ccc2oc(C(=O)Nc3nc4ccc(S(C)(=O)=O)cc4s3)c(C)c2c1 | inactive: 10.9% |  |
| CCOc1ccc(NC(=O)CSc2nnc(CCNC(=O)c3ccc(OC)cc3)n2C)cc1 |  | inconclusive: 20.6 µM [activator, single point] |
| COCCn1c(=NC(=O)c2sc3ccccc3c2Cl)sc2cc(S(N)(=O)=O)ccc21 |  | inconclusive: 13 µM [inhibitor, partial curve, poor fit] |

| Compound | activity change, negative = inhibition | Potency |
| --- | --- | --- |
| CCOc1ncccc1C(=O)OCC(=O)c1ccc(F)cc1 | inactive: -8.47% |  |
| CNC(=O)COc1ccc(Nc2nnc(-c3ccc(C)c(S(N)(=O)=O)c3)c3ccccc23)cc1 |  | inconclusive: 13 µM [activator, partial curve, poor fit] |
| COc1cccc(-c2nc3n(n2)C(c2ccccc2Cl)C(C(N)=O)=C(C)N3)c1 (stereo not drawn) |  | inconclusive: 20.6 µM [activator, single point] |
| N#CC1=C(N)N(c2ccccc2)C(c2ccccc2)C1(C#N)C#N (stereo not drawn) | inactive: 13.3% |  |
| CC(C)C(CCNC1CCN(C)CC1)c1ccc(Cl)cc1 (stereo not drawn) |  | active: 23.1 µM |
| Cc1sc2ncnc(NCc3cccnc3)c2c1C |  | inconclusive: 2.31 µM [inhibitor, partial curve] |
| O=C(Nc1ccccc1F)c1ccc(CN2CCN(c3ccccc3)CC2)cc1 |  | inconclusive: 9.2 µM [inhibitor, partial curve, poor fit] |
| Nc1c(-c2ccccc2)c(CSc2nc3ccccc3[nH]2)nn1-c1cccc(Cl)c1 |  | active: 2.91 µM |
| O=C(NC(Nc1nc2ccc([N+](=O)[O-])cc2s1)(C(F)(F)F)C(F)(F)F)c1ccccc1 |  | inconclusive: 0.146 µM [inhibitor, full curve, poor fit] |
| CC(C)c1ccc(C2C(C#N)=C(N)N3C(=C2C#N)Sc2ccccc23)cc1 (stereo not drawn) |  | inconclusive: 12.6 µM [activator, partial curve, poor fit] |
| CCCC(c1nnnn1C(C)(C)CC)N1CCN(C(=O)c2ccco2)CC1 (stereo not drawn) | inactive: -4.78% |  |
| Cc1ccc(C(=O)Oc2cccc(NC(=O)c3ccccc3)c2)cc1C |  | inconclusive: 23.1 µM [activator, partial curve, poor fit] |
| CCOc1c(Br)ccc2c1sc1nc[nH]c(=O)c12 |  | inconclusive: 20.6 µM [inhibitor, partial curve, poor fit] |
| Cc1cccc(-c2noc(CN(C(=O)c3c(-c4ccccc4Cl)noc3C)C(C)C)n2)c1 |  | active: 20.6 µM |
| O=C(CCCSc1nc2ccccc2[nH]1)NCc1ccc(Cl)cc1 |  | inconclusive: 23.1 µM [inhibitor, partial curve] |
| Cc1cccc(/C(N)=N/OC(=O)N2c3ccccc3Sc3ccccc32)c1 | inactive: 2.45% |  |
| CC(C)(C)C(=O)COC(=O)c1cc(-c2ccncc2)nc2ccccc12 |  | inconclusive: 16.4 µM [inhibitor, single point] |
| Cc1[nH]nc(SCC(=O)NCc2ccc(F)cc2)c1[N+](=O)[O-] |  | inconclusive: 20.6 µM [activator, partial curve, poor fit] |
| CSCCOC(=O)C1=C(C)NC(=O)CC1c1ccccc1Cl (stereo not drawn) |  | inconclusive: 20.6 µM [inhibitor, single point] |
| N#Cc1ccccc1NC(=O)CN1C(=O)NC(Cc2c[nH]c3ccccc23)C1=O (stereo not drawn) |  | inconclusive: 13 µM [activator, partial curve, poor fit] |
| COc1ccc(NC(=O)COC(=O)CC2CCCC2)cc1 |  | inconclusive: 29.1 µM [activator, single point] |
| CC(=O)Nc1cccc(N(C(=O)C2COc3ccccc3O2)C(C(=O)NC2CCCCC2)c2cn(C)nc2C)c1 (stereo not drawn) |  | inconclusive: 18.3 µM [activator, partial curve, poor fit] |
| CN(C(=O)CSc1ncnc2ccccc12)C1CCCCC1 |  | inconclusive: 7.3 µM [activator, partial curve] |

| Compound | activity change, negative = inhibition | Potency |
| --- | --- | --- |
| O=C(NNC(=O)c1ccccc1Br)c1ccc2nc[nH]c2c1 | inactive: 11.4% |  |
| Cc1ccc(SCC(=O)NCC(C)C)cc1 |  | inconclusive: 11.2 µM [activator, partial curve, poor fit] |
| CC(CNC(=O)CCS(=O)(=O)c1ccc2c(c1)NC(=O)CO2)c1ccccc1 (stereo not drawn) | inactive: 0.301% |  |
| COc1ccc(C)cc1NC(=O)CSc1nnc(COc2ccc(C)cc2)n1Cc1ccco1 |  | inconclusive: 18.4 µM [inhibitor, partial curve, poor fit] |
| COc1ccc(NC(=O)c2cc3ccccc3o/c2=N\NS(=O)(=O)c2ccc(C)cc2)cc1 |  | inconclusive: 8.2 µM [activator, partial curve] |
| CCOc1ccc(S(=O)(=O)Nc2ccc(C(=O)N/N=C(\C)c3ccc(-n4ccnc4)cc3)cc2)cc1 |  | inconclusive: 20.6 µM [inhibitor, single point] |
| CSCCC(NS(=O)(=O)c1ccc2ccccc2c1)C(=O)OCC(=O)c1ccc(C(C)C)cc1 (stereo not drawn) |  | inconclusive: 8.2 µM [inhibitor, partial curve, poor fit] |
| CN1CCN(c2nc3c(c(=O)n(C)c(=O)n3C)n2Cc2cccc(Br)c2)CC1 | inactive: -11.9% |  |
| Cc1cc(NC(=O)CCC(=O)N(CC(=O)NCC2CCCO2)c2ccc(C(C)C)cc2)no1 (stereo not drawn) | inactive: -3.44% |  |
| COCCNC(=S)N1CCCN(c2nc3cc(C)ccc3cc2C#N)CC1 |  | inconclusive: 29.1 µM [inhibitor, single point] |
| COc1ccc(N2C(=O)CC(Sc3nnnn3-c3ccc(F)cc3)C2=O)cc1 (stereo not drawn) | inactive: 7.83% |  |
| Cc1ccc(S(=O)(=O)NCCOc2cc(C)ccc2C)cc1 | inactive: 2.64% |  |
| CCCCNC(=O)N(O)C1N(/N=C/c2ccccc2O)C(=S)SC1(C)C (stereo not drawn) | inactive: -3.57% |  |
| Cc1ccc(NC(=O)C2CCCN(C(=O)c3ccc(Cl)cc3)C2)cc1S(=O)(=O)N1CCOCC1 (stereo not drawn) |  | inconclusive: 13 µM [inhibitor, partial curve] |
| Cc1cnc(C(=O)OCC(=O)Nc2cccc(C)c2C)cn1 |  | inconclusive: 29.1 µM [activator, single point] |
| O=C(Nc1ccc(S(=O)(=O)N2CCCCCC2)cc1)c1c(F)cccc1F |  | inconclusive: 23.1 µM [inhibitor, partial curve, poor fit] |
| O=C(NCc1ccc2[nH]c3c(c2c1)CCCC3)c1ccc(S(=O)(=O)N2CCCCC2)cc1 | inactive: -10.9% |  |
| CCOC(=O)CNC(=O)c1c(C)nn(C)c1Cl |  | inconclusive: 29.1 µM [inhibitor, single point] |
| Cc1ccc(C)n1-c1ccc(-c2ccnc(N)n2)cc1 |  | inconclusive: 18.3 µM [activator, single point] |
| O=C(N1CCOCC1)N1CCN(c2nc(-c3ccccc3)cs2)CC1 | inactive: 1.27% |  |
| COc1ccc(CNCc2c(F)cccc2F)cc1OC | inactive: -2.35% |  |
| O=C(Nc1ccc(Nc2ccncc2)cc1)c1ccc(Nc2ccnc3ccc([N+](=O)[O-])cc23)cc1[N+](=O)[O-] | inactive: 0% |  |

Laid out differently: two of the compounds above
Compound | activity change, negative = inhibition | Potency
COCCNC(=S)N1CCCN(c2nc3cc(C)ccc3cc2C#N)CC1 |  | inconclusive: 29.1 µM [inhibitor, single point]
COc1ccc(N2C(=O)CC(Sc3nnnn3-c3ccc(F)cc3)C2=O)cc1 (stereo not drawn) | inactive: 7.83% | 

Three neighbouring records out of the list so far, for reference:

| Compound | activity change, negative = inhibition | Potency |
| --- | --- | --- |
| O=C(C1CCN(S(=O)(=O)c2cccc3cccnc23)CC1)N1CCn2c1nc1ccccc12 |  | active: 23.1 µM |
| CCN(Cc1ccccc1)C(=O)Cc1ccc(OC)c(S(=O)(=O)N2CCOCC2)c1 | inactive: -2.15% |  |
| CCCCNC(=O)CC1N=C2c3ccccc3N=C(SCC(=O)Nc3ccccc3OC)N2C1=O (stereo not drawn) | inactive: -5.14% |  |
